The list shows a part of the results.

Amino acid sequences for entries named in this document (tags omitted).
UniProt Q0JBA9, entry or part of it: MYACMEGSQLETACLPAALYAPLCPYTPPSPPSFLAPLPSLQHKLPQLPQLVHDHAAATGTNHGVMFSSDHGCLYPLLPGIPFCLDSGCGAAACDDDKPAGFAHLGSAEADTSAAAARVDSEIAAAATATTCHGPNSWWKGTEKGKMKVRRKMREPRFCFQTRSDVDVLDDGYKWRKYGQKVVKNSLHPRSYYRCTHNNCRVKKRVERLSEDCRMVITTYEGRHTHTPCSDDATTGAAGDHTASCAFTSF

The target in this experiment is OsWRKY34 (Oryza sativa, UniProt Q0JBA9 1-250). The experiment in a line: protein-binding microarray (RPBM); PBS, 2% BSA, 51.3 ng/ul salmon testes DNA, 50 uM zinc acetate, 200 nM TF, 25 C, 1 h; high values mean tight binding. The conditions noted are these: protein: recombinant; tags: N-terminal polyhistidine and DsRed monomer fusion (pET32a); label: CyDye5-dUTP incorporated in the synthesized complementary strand; 3' TTTTT single-stranded linker to array surface; dsDNA, one strand shown. Summed up:
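The binding signal is fluorescence intensity per feature, in arbitrary units, read on an Axon 4000B scanner. Polyhistidine- and DsRed-tagged transcription factors (N-terminal fusions) from E. coli BL21-CodonPlus were purified on Ni–NTA and applied at 200 nM for 1 h at 25 °C to a double-stranded, BSA-blocked custom Agilent array in buffer with 50 µM zinc acetate.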
As to “AAATCCCTCTGCATGTTTGCTACTCGCTTCGTCCCACACGCGGAGTCACCTAGTGCAG”, the binding signal is 8030 fluorescence intensity (a.u.).

Consider “TTTCATTCACGTGCGGCCCAAGAATGGGATTGCGACTTTCCGGAGTCACCTAGTGCAG”, for which the binding signal was 8190 fluorescence intensity (a.u.).

With “GAGTACTATACGCTACTACTCCTCTAATGCTTCATCTTTGCGGAGTCACCTAGTGCAG”, the binding signal is 8990 fluorescence intensity (a.u.).

As for “ATTCCTGAACGCTCAATGCCTCATGTCGTCGACTAGCCGGCGGAGTCACCTAGTGCAG”, the binding signal is 9140 fluorescence intensity (a.u.).

“TGCACTGTTTAACCACTCGTCTTATTTAAAAATTTTTTAGCGGAGTCACCTAGTGCAG”: the binding signal was 11200 fluorescence intensity (a.u.).

Turning to “CAAGTTCTGTCTCGATACCTCGATCACCTTTTCCTTGTCACGGAGTCACCTAGTGCAG”, the binding signal is 9170 fluorescence intensity (a.u.).

On to “TCCAACATTTGACCATTCATCTTATTTGAAATTTTTTTATCGGAGTCACCTAGTGCAG”, for which the binding signal is 8060 fluorescence intensity (a.u.).

In the case of “GTATAATTATGAACTTCGGATCTTGACTTTTGCCGTGCATCGGAGTCACCTAGTGCAG”, the binding signal was 8780 fluorescence intensity (a.u.).

With “GCCCTTTTCACGGTTTTTCCTGATCTTTCTGGGCTTTCTCCGGAGTCACCTAGTGCAG”, the binding signal was 18800 fluorescence intensity (a.u.).

Take “CTCCTCCGCGCGCGCCGCCTCGACGACTTCTTCGCGCTCCCGGAGTCACCTAGTGCAG”: the binding signal was 10800 fluorescence intensity (a.u.).

As to “TGTGCAGCTGACATATGGGCCCTATGTACTTTTTTATTTTCGGAGTCACCTAGTGCAG”, the binding signal was 9100 fluorescence intensity (a.u.).

As to “GCTTACGTCCACACTACTTTACTCTCCGTTGGACCAAATCCGGAGTCACCTAGTGCAG”, the binding signal is 8940 fluorescence intensity (a.u.).

Regarding “CTTTCTCAGGCAGAGGACGGCGCGGGTGGGCGGCGGAGCACGGAGTCACCTAGTGCAG”, the binding signal was 9390 fluorescence intensity (a.u.).

“TCGGACGGCGGCGATGCAAATCTCCGTCTGTTAATGAAGACGGAGTCACCTAGTGCAG”: the binding signal was 8980 fluorescence intensity (a.u.).

On to “ACTAACTCCACCCATACCACCTTTGTTTTCCCCATGAAAACGGAGTCACCTAGTGCAG”, for which the binding signal is 8470 fluorescence intensity (a.u.).

For the sequence “TTCCGACGGAAACTGCCCTTATCATTTCCGATTCCGTATCCGGAGTCACCTAGTGCAG”, the binding signal is 9140 fluorescence intensity (a.u.).

Take “CCTTTTTTATTCTTGTGCATAAGCCTAAAATAACTAGTTACGGAGTCACCTAGTGCAG”: the binding signal is 8130 fluorescence intensity (a.u.).

Turning to “TGCATGCGTGCTCACGTTTTGGGTGGGTGAGGGACAGAGGCGGAGTCACCTAGTGCAG”, the binding signal was 9450 fluorescence intensity (a.u.).

In the case of “CGATCCAGCCACCACCATGTTCATCTCCATCGTTGGCTGGCGGAGTCACCTAGTGCAG”, the binding signal was 9370 fluorescence intensity (a.u.).

With “GGCCGTCGTACGTCCCGTACTTCATCGTCGCACCCTGAAACGGAGTCACCTAGTGCAG”, the binding signal is 8790 fluorescence intensity (a.u.).

On to “AATTTACCATCACCCCAAGTGCATCACTAGCATACATTATCGGAGTCACCTAGTGCAG”, for which the binding signal was 11600 fluorescence intensity (a.u.).

Regarding “ACGCTGGCCCTCTCAACGGCTTGGCTTTCTCTCTCTCTTTCGGAGTCACCTAGTGCAG”, the binding signal is 8960 fluorescence intensity (a.u.).

Turning to “GACTCTATACTCTACTTCTAATATTCCTTATTTTTTAATTCGGAGTCACCTAGTGCAG”, the binding signal is 12400 fluorescence intensity (a.u.).

In the case of “TCTGGTTAGGCGTCAAATGATGGTGTTCGTGTCTTCTATTCGGAGTCACCTAGTGCAG”, the binding signal was 10400 fluorescence intensity (a.u.).

As to “AGGGCTATATTCTCAGATTCATCATGATTCTTTCGTTTATCGGAGTCACCTAGTGCAG”, the binding signal is 9190 fluorescence intensity (a.u.).

Regarding “ACGCCCGCCAGCAGCAACCACTTCCCACTCACCACGCATGCGGAGTCACCTAGTGCAG”, the binding signal was 8880 fluorescence intensity (a.u.).

On to “ACTGAGCCTATATTGCCCTTATTTCATACTTATATGCTAGCGGAGTCACCTAGTGCAG”, for which the binding signal was 9340 fluorescence intensity (a.u.).

Consider “AAATTCTCATCCAATCGTCTCTATTCTCTCTCATTTTATCCGGAGTCACCTAGTGCAG”, for which the binding signal was 11400 fluorescence intensity (a.u.).

Consider “TTCATATTTTTTTACCCTTTTTGTCCACCTCTGTTTTAGACGGAGTCACCTAGTGCAG”, for which the binding signal is 8240 fluorescence intensity (a.u.).

For the sequence “CCAGAACCTGTTTTCCAGTTCATCCCGTTGCCGGAGGGGTCGGAGTCACCTAGTGCAG”, the binding signal was 9440 fluorescence intensity (a.u.).

Consider “TTAGAATCCTACGTTTTTTCATTCCTACGATTCAAAGGGGCGGAGTCACCTAGTGCAG”, for which the binding signal is 10500 fluorescence intensity (a.u.).

Regarding “TTGTGGTGATTGAGAGGGTTTGAAAGGGGTTGATGTGTGGCGGAGTCACCTAGTGCAG”, the binding signal was 8200 fluorescence intensity (a.u.).

In the case of “GCTGCCATCACTTCGTCCTCTCCCTGTTCCTGGACGTCCTCGGAGTCACCTAGTGCAG”, the binding signal was 8410 fluorescence intensity (a.u.).

On to “CACAGTCAAATCATCACAATGCTCCTGTCTGATTCTGTTACGGAGTCACCTAGTGCAG”, for which the binding signal was 9690 fluorescence intensity (a.u.).

With “CACCACCCAGATCTGTCTCGTCTCTGTTCTTGCCTTCGCTCGGAGTCACCTAGTGCAG”, the binding signal was 11900 fluorescence intensity (a.u.).

Take “TTGGTTTTCTTAAATTTATTTTTTCCTTTTTTTTCTTTTACGGAGTCACCTAGTGCAG”: the binding signal was 10800 fluorescence intensity (a.u.).

“CCACTGCCACCGCCCCTCGCCGCTGACGACCGCCGCCGCCCGGAGTCACCTAGTGCAG”: the binding signal was 9580 fluorescence intensity (a.u.).

As for “CCAACCTGTTAGCTGTCTCCTCACCTCTCCATGATCAACTCGGAGTCACCTAGTGCAG”, the binding signal is 9040 fluorescence intensity (a.u.).

As to “ATTTGCCGCCGCCACCGCACCGCCCAACTCTGGTTCTTGACGGAGTCACCTAGTGCAG”, the binding signal was 8440 fluorescence intensity (a.u.).

“GACATTTCGGCTGAGTTCTTTGGCTACCTTTCTCCTTTTCCGGAGTCACCTAGTGCAG”: the binding signal is 8500 fluorescence intensity (a.u.).

“CGATGTGTTTGTATTATATTTATGCAAGTCATATTTAAACCGGAGTCACCTAGTGCAG”: the binding signal is 8540 fluorescence intensity (a.u.).

For “TTTCACTTTTCAGCCATGAGGCTGTCGTCCCTGCTGTTCTCGGAGTCACCTAGTGCAG”, the binding signal is 8530 fluorescence intensity (a.u.).

Consider “AGTGATGAACGCACAAACGGTATTTGACTTTTTTGTCCATCGGAGTCACCTAGTGCAG”, for which the binding signal was 9170 fluorescence intensity (a.u.).

As to “GAATTGATCTCATGCATGCCAACCCTTCTAGCAATCTATCCGGAGTCACCTAGTGCAG”, the binding signal is 9310 fluorescence intensity (a.u.).

For the sequence “AACTTTTCCGTGACATCGTTCGAATTTCAACCAAACTTTCCGGAGTCACCTAGTGCAG”, the binding signal was 9590 fluorescence intensity (a.u.).

Turning to “TCCGTTTGTTTTGTCTTCATATTGTTTTTCTTTTACAGATCGGAGTCACCTAGTGCAG”, the binding signal was 14500 fluorescence intensity (a.u.).

Regarding “TTCCCTCCATATTTTAATGTATGACGCCGTTGACTTTTTACGGAGTCACCTAGTGCAG”, the binding signal is 17700 fluorescence intensity (a.u.).

“ACATCTCGCGCTGCTGCTCTCCTCTTCCGTTCCAACGCCCCGGAGTCACCTAGTGCAG”: the binding signal was 9750 fluorescence intensity (a.u.).

With “CTCCGAACCCCACCGTTTTATGCTCTAGTTGTGTTTTGGGCGGAGTCACCTAGTGCAG”, the binding signal was 10900 fluorescence intensity (a.u.).

Turning to “CTAGGGTTAGGGGTTTGGGTGGGGAAATTTTCACGAGGGACGGAGTCACCTAGTGCAG”, the binding signal was 14600 fluorescence intensity (a.u.).

Take “TCGTCGTTGTGTTCAACTATTGCACTACCTCCCTCCTAGTCGGAGTCACCTAGTGCAG”: the binding signal was 8580 fluorescence intensity (a.u.).

“TTCATCTCACGTACTGTTCTTTTGCCTCTCGCTAGCTCGTCGGAGTCACCTAGTGCAG”: the binding signal is 9220 fluorescence intensity (a.u.).

Regarding “TGTTTTTTTCCCTATTTTTGTTTCTGCATCTTGACATTTTCGGAGTCACCTAGTGCAG”, the binding signal is 16000 fluorescence intensity (a.u.).

Take “CCGCGACACAACCCTGCCACCGTCGCCGCTTTCTTTGCCGCGGAGTCACCTAGTGCAG”: the binding signal is 11600 fluorescence intensity (a.u.).

Values taken from publication PMC7819943, “Rice protein-binding microarrays: a tool to detect cis-acting elements near promoter regions in rice”.
